Test results reported in article PMC5432316.
No constants are given. Whether binding was seen depends on the method and setting. Some results given as binding are weak or reduced against the parent protein; the word gives no strength.

Protein sequences, listed by entry. Tags and fused reporters are not part of them. Lines headed by an entry give the natural chain unless they say otherwise; changes in a name come on top.
UniProt P02454: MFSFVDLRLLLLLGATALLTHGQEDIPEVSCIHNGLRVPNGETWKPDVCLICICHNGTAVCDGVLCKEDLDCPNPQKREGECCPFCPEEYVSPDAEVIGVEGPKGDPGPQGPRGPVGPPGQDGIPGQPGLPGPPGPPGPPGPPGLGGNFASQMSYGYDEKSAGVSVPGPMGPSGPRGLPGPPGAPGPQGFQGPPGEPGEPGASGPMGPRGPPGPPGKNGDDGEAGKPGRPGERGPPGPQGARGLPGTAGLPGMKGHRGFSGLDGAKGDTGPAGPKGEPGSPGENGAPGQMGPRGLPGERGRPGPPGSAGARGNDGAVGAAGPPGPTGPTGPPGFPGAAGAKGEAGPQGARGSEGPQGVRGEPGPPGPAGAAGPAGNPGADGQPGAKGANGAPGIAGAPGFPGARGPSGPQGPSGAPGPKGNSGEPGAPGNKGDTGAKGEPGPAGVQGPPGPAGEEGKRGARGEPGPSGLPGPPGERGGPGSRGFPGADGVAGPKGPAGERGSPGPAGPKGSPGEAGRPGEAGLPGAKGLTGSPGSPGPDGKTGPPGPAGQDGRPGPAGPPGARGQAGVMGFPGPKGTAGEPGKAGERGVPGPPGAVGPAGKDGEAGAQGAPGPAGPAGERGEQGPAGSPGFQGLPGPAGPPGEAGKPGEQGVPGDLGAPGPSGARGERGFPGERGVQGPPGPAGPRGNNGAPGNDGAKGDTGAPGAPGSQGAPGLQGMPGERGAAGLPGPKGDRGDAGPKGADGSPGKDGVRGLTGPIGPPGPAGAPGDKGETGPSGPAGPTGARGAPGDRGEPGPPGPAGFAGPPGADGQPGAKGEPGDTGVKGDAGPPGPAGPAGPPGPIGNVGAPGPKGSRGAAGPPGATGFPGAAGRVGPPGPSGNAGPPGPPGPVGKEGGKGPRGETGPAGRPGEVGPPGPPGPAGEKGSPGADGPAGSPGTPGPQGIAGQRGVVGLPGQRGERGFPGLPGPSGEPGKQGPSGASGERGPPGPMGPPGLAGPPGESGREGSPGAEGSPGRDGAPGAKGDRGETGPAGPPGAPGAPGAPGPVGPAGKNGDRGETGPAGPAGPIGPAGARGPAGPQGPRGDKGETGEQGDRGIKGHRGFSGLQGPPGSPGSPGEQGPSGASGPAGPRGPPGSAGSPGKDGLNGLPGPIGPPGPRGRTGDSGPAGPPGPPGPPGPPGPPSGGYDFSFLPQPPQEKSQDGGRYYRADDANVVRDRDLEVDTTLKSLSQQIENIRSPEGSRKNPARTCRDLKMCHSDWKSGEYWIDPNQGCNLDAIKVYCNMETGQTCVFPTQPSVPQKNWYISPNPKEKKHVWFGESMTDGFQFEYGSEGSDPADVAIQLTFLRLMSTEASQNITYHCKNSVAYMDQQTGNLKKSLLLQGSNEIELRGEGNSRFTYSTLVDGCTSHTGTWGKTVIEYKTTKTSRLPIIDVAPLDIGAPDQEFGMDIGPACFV
UniProt P02466: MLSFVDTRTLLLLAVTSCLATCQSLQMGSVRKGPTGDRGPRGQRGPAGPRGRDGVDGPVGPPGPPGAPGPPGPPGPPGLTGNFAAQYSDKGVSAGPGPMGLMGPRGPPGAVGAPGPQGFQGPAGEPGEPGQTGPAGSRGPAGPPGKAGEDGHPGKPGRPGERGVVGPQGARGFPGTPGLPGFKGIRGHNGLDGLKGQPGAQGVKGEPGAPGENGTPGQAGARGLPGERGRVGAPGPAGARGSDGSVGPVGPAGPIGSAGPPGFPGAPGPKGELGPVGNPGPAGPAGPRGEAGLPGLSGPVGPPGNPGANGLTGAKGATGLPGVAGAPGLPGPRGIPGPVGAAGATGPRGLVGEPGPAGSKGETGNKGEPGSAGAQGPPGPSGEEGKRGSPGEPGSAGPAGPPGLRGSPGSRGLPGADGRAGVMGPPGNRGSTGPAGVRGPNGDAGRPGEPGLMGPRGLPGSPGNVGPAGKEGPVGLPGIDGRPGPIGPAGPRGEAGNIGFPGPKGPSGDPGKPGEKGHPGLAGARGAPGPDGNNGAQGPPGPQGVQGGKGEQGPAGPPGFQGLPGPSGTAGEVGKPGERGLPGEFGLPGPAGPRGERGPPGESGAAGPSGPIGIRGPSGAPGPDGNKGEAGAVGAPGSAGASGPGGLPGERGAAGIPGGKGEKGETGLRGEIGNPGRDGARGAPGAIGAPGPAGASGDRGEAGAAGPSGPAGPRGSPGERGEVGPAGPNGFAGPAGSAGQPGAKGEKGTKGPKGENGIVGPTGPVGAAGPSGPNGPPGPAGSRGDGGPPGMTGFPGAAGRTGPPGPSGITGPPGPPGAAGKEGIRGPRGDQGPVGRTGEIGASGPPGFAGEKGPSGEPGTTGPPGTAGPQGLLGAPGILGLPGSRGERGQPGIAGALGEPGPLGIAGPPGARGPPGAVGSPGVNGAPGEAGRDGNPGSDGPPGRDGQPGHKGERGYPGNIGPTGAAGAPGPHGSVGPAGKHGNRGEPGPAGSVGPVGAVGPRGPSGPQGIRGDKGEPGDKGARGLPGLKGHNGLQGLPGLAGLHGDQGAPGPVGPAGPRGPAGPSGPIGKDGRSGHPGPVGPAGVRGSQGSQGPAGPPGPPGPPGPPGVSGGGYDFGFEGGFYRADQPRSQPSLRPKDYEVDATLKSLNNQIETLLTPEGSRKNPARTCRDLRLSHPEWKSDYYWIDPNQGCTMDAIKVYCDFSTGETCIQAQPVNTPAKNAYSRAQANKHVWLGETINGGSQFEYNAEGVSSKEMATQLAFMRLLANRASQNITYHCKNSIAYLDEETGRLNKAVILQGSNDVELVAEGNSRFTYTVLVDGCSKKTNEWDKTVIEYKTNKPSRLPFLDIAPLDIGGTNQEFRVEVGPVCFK
UniProt P17301: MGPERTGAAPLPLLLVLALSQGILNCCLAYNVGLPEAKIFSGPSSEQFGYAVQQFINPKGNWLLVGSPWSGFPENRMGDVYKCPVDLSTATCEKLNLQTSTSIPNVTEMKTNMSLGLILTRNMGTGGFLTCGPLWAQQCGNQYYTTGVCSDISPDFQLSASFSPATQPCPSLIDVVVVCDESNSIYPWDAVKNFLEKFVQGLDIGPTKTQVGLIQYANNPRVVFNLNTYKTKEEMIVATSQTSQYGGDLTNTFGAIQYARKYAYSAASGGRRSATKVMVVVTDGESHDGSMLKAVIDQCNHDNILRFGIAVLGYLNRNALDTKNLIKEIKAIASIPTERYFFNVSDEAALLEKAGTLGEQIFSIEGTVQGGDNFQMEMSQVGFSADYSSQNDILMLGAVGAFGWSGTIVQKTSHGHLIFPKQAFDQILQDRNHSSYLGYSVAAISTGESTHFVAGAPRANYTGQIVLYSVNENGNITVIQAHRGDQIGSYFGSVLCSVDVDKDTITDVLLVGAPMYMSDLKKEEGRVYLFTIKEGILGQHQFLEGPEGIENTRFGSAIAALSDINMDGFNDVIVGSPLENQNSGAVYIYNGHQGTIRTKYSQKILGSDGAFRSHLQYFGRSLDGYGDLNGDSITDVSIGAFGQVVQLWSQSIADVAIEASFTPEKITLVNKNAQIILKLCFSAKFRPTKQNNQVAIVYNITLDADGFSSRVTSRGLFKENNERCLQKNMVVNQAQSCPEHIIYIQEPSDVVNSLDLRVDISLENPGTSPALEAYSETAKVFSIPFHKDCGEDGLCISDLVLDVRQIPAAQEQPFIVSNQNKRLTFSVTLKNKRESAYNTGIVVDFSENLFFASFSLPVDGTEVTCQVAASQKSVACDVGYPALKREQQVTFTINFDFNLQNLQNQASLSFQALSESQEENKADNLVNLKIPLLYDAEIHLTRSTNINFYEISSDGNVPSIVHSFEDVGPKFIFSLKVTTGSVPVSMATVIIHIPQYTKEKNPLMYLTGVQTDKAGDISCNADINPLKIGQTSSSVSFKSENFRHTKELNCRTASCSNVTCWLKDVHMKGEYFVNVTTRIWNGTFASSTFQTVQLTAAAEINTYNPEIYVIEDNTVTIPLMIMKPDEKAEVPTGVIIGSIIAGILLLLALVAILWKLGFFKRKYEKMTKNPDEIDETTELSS

Target: Rat tail collagen type I (rat) (UniProt P02454+P02466)
Experiment: cell adhesion assay (CAFCA, Centrifugal Assay for Fluorescence-based Cell Adhesion); ligand as substrate in CAFCA miniplates; calcein AM-labelled cells centrifuged onto the substrate, 20 min at 37°C, then centrifuged at 500 rpm; bound cells read by fluorescence; for HaCat cells also with integrin blocking antibodies; only the target purified

- binding: binds
Substance: α2β1 integrin on HaCat cells (from UniProt P17301 30-1181; P05556 21-798) (receptor)
